The target in the assay is HCV NS4B protein, genotype 2a (SGR-Feo-JFH-1 subgenomic replicon) (hepatitis C virus genotype 2a (JFH-1)) (UniProt Q99IB8). The assay is described as follows: co-IP; lysate (Cellytic MT) of Huh7.5/SGR-Feo-JFH-1 or Huh7.5 S52/SG-Feo cells; NS4B precipitated with the antibody MA17616 overnight at 4°C and Protein A agarose; washed 5x with 25 mM Tris, 150 mM NaCl; western blot for HSPB8; control without the NS4B antibody.

Chains of the proteins cited; added tags and fusions are not shown. Residues count along the entry.
UniProt Q99IB8, residues 1716-1976: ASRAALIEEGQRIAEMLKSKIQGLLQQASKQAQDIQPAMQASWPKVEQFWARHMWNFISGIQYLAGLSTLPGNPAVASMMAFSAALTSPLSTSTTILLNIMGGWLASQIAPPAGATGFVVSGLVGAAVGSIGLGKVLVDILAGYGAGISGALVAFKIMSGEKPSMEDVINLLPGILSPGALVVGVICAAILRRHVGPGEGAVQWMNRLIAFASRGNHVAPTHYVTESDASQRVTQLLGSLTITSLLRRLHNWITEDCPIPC

No constants are given. Whether binding was seen depends on the method and setting. Binding seen in cells or lysates may run through a third protein. Some entries that bind do so weakly or less than the wild type.

B1: HSPB8 (Heat Shock Protein Family B Member 8) (protein, UniProt Q9UJY1 1-196)
chain: MADGQMPFSCHYPSRLRRDPFRDSPLSSRLLDDGFGMDPFPDDLTASWPDWALPRLSSAWPGTLRSGMVPRGPTATARFGVPAEGRTPPPFPGEPWKVCVNVHSFKPEELMVKTKDGYVEVSGKHEEKQQEGGIVSKNFTKKIQLPAEVDPVTVFASLSPEGLLIIEAPQVPPYSTFGESSFNNELPQDSQEVTCT
On to B1, for which the binding entry is “binds”.

The values are drawn from article PMC5705118.
